Data reported in patent US20230039401A1, “COMPOSITIONS AND METHODS FOR TREATING NRP2-ASSOCIATED DISEASES” (aTyr Pharma, Inc., priority 2018, published 2023).
These are yes or no findings as the source states them, for the method shown. Some binding calls cover weakened binding; strength is not graded here. Tags and fused reporters may be left off the sequences shown. Blank lines part the entries; values can stand above or below the binder they belong to.

Columns and labels:
Fc-HRS(2-60) = experiment: SPR, Fc-HRS(2-60) immobilised, 50 nM mouse NRP2 as analyte
[1] = target: NRP2-Fc (R&D Systems #2215-N2) (human) (UniProt O60462); experiment: SPR (column: Binding to NRP2 observed by SPR)
[2] = target: NRP2-Fc (R&D Systems #2215-N2) (human) (UniProt O60462); experiment: SPR
[3] = target: T1, endogenous soluble NRP2 in human serum (human) (UniProt O60462); experiment: HRS:NRP2 complex ELISA (MSD) on human serum, capture with NRP2 antibody, detection with HRS N-terminal antibody
T1 sequence (looked up): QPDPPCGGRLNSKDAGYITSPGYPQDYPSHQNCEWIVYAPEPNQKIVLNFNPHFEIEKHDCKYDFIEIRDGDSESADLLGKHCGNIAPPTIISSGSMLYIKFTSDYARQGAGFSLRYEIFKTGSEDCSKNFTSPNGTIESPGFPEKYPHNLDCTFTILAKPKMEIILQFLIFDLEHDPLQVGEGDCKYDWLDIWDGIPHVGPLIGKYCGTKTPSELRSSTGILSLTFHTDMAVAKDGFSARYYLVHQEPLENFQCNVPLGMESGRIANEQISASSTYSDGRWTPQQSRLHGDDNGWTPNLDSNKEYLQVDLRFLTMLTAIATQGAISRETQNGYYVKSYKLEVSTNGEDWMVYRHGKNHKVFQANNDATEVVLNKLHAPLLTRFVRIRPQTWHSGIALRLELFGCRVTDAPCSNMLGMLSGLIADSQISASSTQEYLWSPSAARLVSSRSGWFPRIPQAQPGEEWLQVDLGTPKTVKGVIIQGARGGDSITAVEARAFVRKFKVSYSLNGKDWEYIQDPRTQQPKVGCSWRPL

[4] = target: T1, endogenous soluble NRP2 in human serum (human); experiment: sandwich complex ELISA on human serum: capture of HRS and detection of NRP2, and the reverse
[5] = target: T1, endogenous soluble NRP2 in human serum (human); experiment: HRS:NRP2 complex ELISA (MSD) on human serum, capture with NRP2 monoclonal antibody, detection with HRS N-terminal antibody (HARS_NT)
[6] = target: T1, endogenous soluble NRP2 in human serum (human); experiment: complex ELISA on human serum, NRP2 capture antibody, HRS N-terminal detection antibody
[7] = target: T1, endogenous soluble NRP2 in human serum (human); experiment: HRS:NRP2 complex ELISA (MSD) on human serum, capture with NRP2 antibody, detection with HRS C-terminal antibody
[8] = target: T1, endogenous soluble NRP2 in human serum (human); experiment: HRS:NRP2 complex ELISA (MSD) on human serum, capture with HRS N-terminal antibody, detection with NRP2 antibody
[9] = target: T1, endogenous soluble NRP2 in human serum (human); experiment: HRS:NRP2 complex ELISA (MSD) on human serum, capture with HRS C-terminal antibody, detection with NRP2 antibody
[10] = target: T1, endogenous soluble NRP2 in human serum (human); experiment: complex ELISA on human serum, NRP2 capture antibody, HARS_NT detection antibody
[11] = target: T1, endogenous soluble NRP2 in human serum (human); experiment: sandwich complex ELISA on human serum, several antibody pairings

binding (Fc-HRS(2-60)): binds
B1: Mouse NRP2-Fc (R&D Systems #7988-N2) (Fc fusion, UniProt O35375 23-864, looked up, not shown: a dimerising Fc or GST)
chain: QQDPPCGGRLNSKDAGYITSPGYPQDYPSHQNCEWIVYAPEPNQKIVLNFNPHFEIEKHDCKYDFIEIRDGDSESADLLGKHCGNIAPPTIISSGSVLYIKFTSDYARQGAGFSLRYEIFKTGSEDCSKNFTSPNGTIESPGFPEKYPHNLDCTFTILAKPRMEIILQFLTFDLEHDPLQVGEGDCKYDWLDIWDGIPHVGPLIGKYCGTKTPSKLRSSTGILSLTFHTDMAVAKDGFSARYYLIHQEPPENFQCNVPLGMESGRIANEQISASSTFSDGRWTPQQSRLHGDDNGWTPNLDSNKEYLQVDLRFLTMLTAIATQGAISRETQKGYYVKSYKLEVSTNGEDWMVYRHGKNHKIFQANNDATEVVLNKLHMPLLTRFIRIRPQTWHLGIALRLELFGCRVTDAPCSNMLGMLSGLIADTQISASSTREYLWSPSAARLVSSRSGWFPRNPQAQPGEEWLQVDLGTPKTVKGVIIQGARGGDSITAVEARAFVRKFKVSYSLNGKDWEYIQDPRTQQTKLFEGNMHYDTPDIRRFDPVPAQYVRVYPERWSPAGIGMRLEVLGCDWTDSKPTVETLGPTVKSEETTTPYPMDEDATECGENCSFEDDKDLQLPSGFNCNFDFPEETCGWVYDHAKWLRSTWISSANPNDRTFPDDKNFLKLQSDGRREGQYGRLISPPVHLPRSPVCMEFQYQAMGGHGVALQVVREASQESKLLWVIREDQGSEWKHGRIILPSYDMEYQIVFEGVIGKGRSGEISIDDIRISTDVPLENCMEPISAFAGEDFKVDIPETHGGEGYEDEIDDEYEGDWSNSSSSTSGAGDPSSGKEKSWLYTLDP

binding [1]: binds | binding [2]: binds
B2: Mouse SEMA3F-Fc (R&D Systems #3237-S3) (Fc fusion, UniProt O88632 19-785, looked up, not shown: a dimerising Fc or GST)
chain: ATPIQDQLPATPRVRLSFKELKATGTAHFFNFLLNTTDYRILLKDEDHDRMYVGSKDYVLSLDLHDINREPLIIHWAASPQRIEECILSGKDGNGECGNFVRLIQPWNRTHLYVCGTGAYNPMCTYVNRGRRAQALPWTQMQVVRGRGSRATDGADRPTPTAPRQDYIFYLEPEKLESGKGKCPYDPKLDTASALINEELYAGVYIDFMGTDAAIFRTLGKQTAMRTDQYNSRWLNDPSFIHAELIPDSAERNDDKLYFFFRERSAEAPQNPAVYARIGRICLNDDGGHCCLVNKWSTFLKARLVCSVPGEDGIETHFDELQDVFVQQTQDVRNPVIYAVFTSSGSVFRGSAVCVYSMADIRMVFNGPFAHKEGPNYQWMPFSGKMPYPRPGTCPGGTFTPSMKSTKDYPDEVINFMRTHPLMYQAVYPLQRRPLVVRTGAPYRLTTVAVDQVDAADGRYEVLFLGTDRGTVQKVIVLPKDDQEVEELMLEEVEVFKEPAPVKTMTISSKRQQLYVASAVGVTHLSLHRCQAYGAACADCCLARDPYCAWDGQACSRYTASSKRRSRRQDVRHGNPIRQCRGFNSNANKNAVESVQYGVAGSAAFLECQPRSPQATVKWLFQRDPSDRRREIRAEDRFLRTEQGLLLRALQLGDRGLYSCTATENNFKHIVTRVQLHVLGRDAVHAALFPPLAVSVPPPPGTGPPTPPYQELAQLLAQPEVGLIHQYCQGYWRHVPPRPREAPGALRPPELQDQKKPRNRRHHPPDT

binding [3]: binds | binding [4]: binds | binding [5]: binds | binding [6]: binds | binding [7]: binds | binding [8]: binds | binding [9]: binds | binding [10]: binds | binding [11]: binds
B3: endogenous circulating human HRS (histidyl-tRNA synthetase) in serum (enzyme)
chain: AERAALEELVKLQGERVRGLKQQKASAELIEEEVAKLLKLKAQLGPDESKQKFVLKTPKGTRDYSPRQMAVREKVFDVIIRCFKRHGAEVIDTPVFELKETLMGKYGEDSKLIYDLKDQGGELLSLRYDLTVPFARYLAMNKLTNIKRYHIAKVYRRDNPAMTRGRYREFYQCDFDIAGNFDPMIPDAECLKIMCEILSSLQIGDFLVKVNDRRILDGMFAICGVSDSKFRTICSSVDKLDKVSWEEVKNEMVGEKGLAPEVADRIGDYVQQHGGVSLVEQLLQDPKLSQNKQALEGLGDLKLLFEYLTLFGIDDKISFDLSLARGLDYYTGVIYEAVLLQTPAQAGEEPLGVGSVAAGGRYDGLVGMFDPKGRKVPCVGLSIGVERIFSIVEQRLEALEEKIRTTETQVLVASAQKKLLEERLKLVSELWDAGIKAELLYKKNPKLLNQLQYCEEAGIPLVAIIGEQELKDGVIKLRSVTSREEVDVRREDLVEEIKRRTGQPLCIC

binding [1]: binds | binding [2]: binds
B4: SEMA3C-Fc (R&D Systems #5570-S3) (Fc fusion, human, UniProt Q99985 21-738, looked up, not shown: a dimerising Fc or GST)
chain: GSSQPQARVYLTFDELRETKTSEYFSLSHHPLDYRILLMDEDQDRIYVGSKDHILSLNINNISQEALSVFWPASTIKVEECKMAGKDPTHGCGNFVRVIQTFNRTHLYVCGSGAFSPVCTYLNRGRRSEDQVFMIDSKCESGKGRCSFNPNVNTVSVMINEELFSGMYIDFMGTDAAIFRSLTKRNAVRTDQHNSKWLSEPMFVDAHVIPDGTDPNDAKVYFFFKEKLTDNNRSTKQIHSMIARICPNDTGGLRSLVNKWTTFLKARLVCSVTDEDGPETHFDELEDVFLLETDNPRTTLVYGIFTTSSSVFKGSAVCVYHLSDIQTVFNGPFAHKEGPNHQLISYQGRIPYPRPGTCPGGAFTPNMRTTKEFPDDVVTFIRNHPLMYNSIYPIHKRPLIVRIGTDYKYTKIAVDRVNAADGRYHVLFLGTDRGTVQKVVVLPTNNSVSGELILEELEVFKNHAPITTMKISSKKQQLYVSSNEGVSQVSLHRCHIYGTACADCCLARDPYCAWDGHSCSRFYPTGKRRSRRQDVRHGNPLTQCRGFNLKAYRNAAEIVQYGVKNNTTFLECAPKSPQASIKWLLQKDKDRRKEVKLNERIIATSQGLLIRSVQGSDQGLYHCIATENSFKQTIAKINFKVLDSEMVAVVTDKWSPWTWASSVRALPFHPKDIMGAFSHSEMQMINQYCKDTRQQHQQGDESQKMRGDYGKLKALINS
